According to patent US12459951B2, “Compounds that interact with RAS superfamily proteins for treatment of cancers, inflammatory diseases, rasopathies, and fibrotic disease” (SHY Therapeutics, LLC, priority 2022, dated 2025):
For at least one compound, name, drawing or mass did not settle the structure.

Assays:
KRas G12C mutant = assay: Ras GTP Binding Domain Inhibition Assay (Ras Superfamily Assay); conditions: 20 μM compound; for KRas G12C mutant + SOS: % inh.: with SOS; for KRas G12C mutant: % inh.: without SOS
Description: (§1) Biological Example 3: Ras GTP Binding Domain Inhibition Assay
(§2) The assays described in Example 3 are collectively referred to as the “Ras Superfamily Assay” throughout this application.
(§3) A Ras Superfamily Activity Assay (as disclosed in International Application No. PCT/US2018/038613, filed Jun. 20, 2018, which is incorporated by reference in its entirety) was used as a specific assay to evaluate compounds against the following for the following Ras Superfamily proteins: KRas wild type, KRas Q61H mutant, KRas G12C mutant, KRas G12D mutant, Rac-1, and Rho-A.
(§4) • 25 mM Tris-HCl, pH 7.4 • 27 mM KCl • 137 mM NaCl • 1 mM MgCl2 • 1 mM DTT Buffer-II: • 50 mM Tris-HCl, pH 7.0 • 1 mM MgCl2 • 1 mM DTT
(§5) The small GTPases proteins: KRas wild type. KRas Q61H mutant, KRas G12C mutant, KRas G12D mutants, Rac-1, and Rho-A were expressed as His-tagged proteins. In addition, the Guanosine nucleotide Exchange Factor (GEF) Sos protein (residues 556-1049) was expressed as a His-tagged protein. In cells, the guanine nucleotide exchange factor Sos protein promotes activation of Ras proteins by stimulating an exchange of GDP for GTP. The inclusion of Sos to the Ras GTP binding domain inhibition assay may be considered as an alternative representation of physiological cellular conditions for evaluating the inhibitory activity of some of the tested small molecules.
(§6) For the assay, all purified small GTPases proteins were diluted in Buffer-I or Buffer-II to a final concentration of 10-30 μg/mL. 200 μL of each diluted protein was added to a nickel-coated 96-well plate and incubated overnight at 4° C. Then the protein solution was discarded and 200 μL of Buffer-I or Buffer-II was added to each well in the presence of 1% DMSO. Compounds to be tested were added to the protein-coated wells at final concentration of 20 μM, and incubated for 3 hours at room temperature with and without 10-30 μg/mL of Sos added to the final hour of the incubation. When performing IC50 measurements a serial dilution of all tested concentrations was added. Then Cy3-GTP or Cy5-GTP was added to each well to a final concentration of 100 nM. The labeled GTP was incubated for 45 minutes at room temperature. Following GTP incubation, wells were washed 3× in Buffer-I or Buffer-II and 200 μL of Buffer-I or Buffer-II was added to each well. Following washes, the amount of bound labeled-GTP was measured using a SpectraMax M3 (Molecular Devices).

KRas Q61H mutant = assay: as above; conditions: 20 μM compound; for KRas Q61H mutant + SOS: % inh.: with SOS; for KRas Q61H mutant: % inh.: without SOS
Description: as §1, §2, §3, §4, §5, §6

KRas wild type = assay: as above; conditions: 20 μM compound; for KRas wild type + SOS: % inh.: with SOS; for KRas wild type: % inh.: without SOS
Description: as §1, §2, §3, §4, §5, §6

KRas G12D mutant = assay: as above; conditions: 20 μM compound; for KRas G12D mutant + SOS: % inh.: with SOS; for KRas G12D mutant: % inh.: without SOS
Description: as §1, §2, §3, §4, §5, §6

active/cleaved caspase 9 = assay: Cell-based caspase activation assay (western blot); design: species or system human; conditions: MiaPaca2, after 48 hours
Description: (§7) Biological Example 4: Puma Expression and Caspases Activation Assay
(§8) Protocols for Cell-Based Puma Expression and Caspase Activation Assays
(§9) Cell lines: All human tumor-derived cancer cell lines were purchased from American Type Culture Collection. Human tumor-derived cancer cell lines Panc-1 (expressing KRas G12D mutant), MiaPaca-2 (expressing KRas G12C mutant), A549 (expressing KRas G12S mutant), and A375 (expressing wild type KRas) were grown in complete DMEM-High Glucose medium and NCI-H1975 (expressing wild type KRas), MM.1R (expressing wild type KRas) and IM.9 (expressing wild type KRas) were grown in RPMI1640 medium. Human tumor-derived cancer cell line BT-549 (expressing wild type KRas) was grown in RPMI1640 medium with 11.8U insulin. All mediums were supplemented with penicillin (100 U/mL), streptomycin (100 μg/mL), and 10% heat-inactivated FBS at 37° C. in a humidified incubator with 5% CO2.
(§10) Method: Cells were plated at 300,000 to 800,000 cells/well density in a 6-well plate in the presence of 10% FBS. The next day small molecules to be tested were added to the cells in the final concentration of 3 μM in the presence of 0.3% DMSO for 48 hours incubation at 37° C. […] Protein concentration was assessed by BCA protein assay (Thermo Scientific). Increase expression of PUMA and active/cleaved forms of caspase 3, caspase 6 and caspase 9 were detected by western blot.
(§11) Western blot protocol: Equal amounts of protein (15-50 μg) were separated by SDS-PAGE and transferred to nitrocellulose membranes (Invitrogen by Thermo Fisher Scientific). […] Membranes were blocked with 10% milk and expression levels of PUMA was assessed by incubating overnight at 4° C. with the antibody PUMA (D30C10) from Cell Signaling Technology (#12450) and active/cleaved forms of caspase 3, caspase 6 and caspase 9 by incubating overnight at 4° C. with the following antibodies: cleaved caspase-3 (Asp175) (5A1E), cleaved caspase-6 (Asp162) and cleaved caspase-9 (Asp330) (D2D4) (all antibodies from Cell Signaling Technology). […]

active/cleaved caspase 3 = assay: Cell-based caspase activation assay (western blot); design: species or system human; conditions: MiaPaca2, after 48 hours
Description: as §7, §8, §9, §10, §11

active/cleaved caspase 6 = assay: Cell-based caspase activation assay (western blot); design: species or system human; conditions: MiaPaca2, after 48 hours
Description: as §7, §8, §9, §10, §11

PUMA expression = assay: Cell-based Puma expression assay (western blot); design: species or system human; conditions: MiaPaca2, after 48 hours
Description: as §7, §8, §9
as §10, with “blot. […]” for “blot.”

Structure (SMILES)	KRas G12C mutant + SOS: % inh. (KRas G12C mutant)	KRas G12C mutant: % inh. (KRas G12C mutant)	KRas Q61H mutant + SOS: % inh. (KRas Q61H mutant)	KRas Q61H mutant: % inh. (KRas Q61H mutant)	KRas wild type + SOS: % inh. (KRas wild type)	KRas wild type: % inh. (KRas wild type)	KRas G12D mutant + SOS: % inh. (KRas G12D mutant)	KRas G12D mutant: % inh. (KRas G12D mutant)	Caspase 9 activation (active/cleaved caspase 9)	Caspase 3 activation (active/cleaved caspase 3)	Caspase 6 activation (active/cleaved caspase 6)	Increased PUMA expression (PUMA expression)
COCCNc1nc(-c2nccn2C)nn2cc(-c3ccn(C(C)C)n3)c(C)c12 [Compound 5, 6-(1-Isopropyl-1H-pyrazol-3-yl)-N-(2-methoxyethyl)-5-methyl-2-(1-methyl-1H-imidazol-2-yl)pyrrolo[2,1-f][1,2,4]triazin-4-amine]	0 (0 = 0% inhibition)	0 (0 = 0% inhibition)	0 (0 = 0% inhibition)	0 (0 = 0% inhibition)	0 (0 = 0% inhibition)	0 (0 = 0% inhibition)	0 (0 = 0% inhibition)	0 (0 = 0% inhibition)	–	–	–	–
COc1ccc(Nc2nc(-c3nccn3C)nn3cc(-c4ccn(C(C)C)n4)c(C)c23)nn1 [Compound 74, 6-(1-Isopropyl-1H-pyrazol-3-yl)-N-(6-methoxypyridazin-3-yl)-5-methyl-2-(1-methyl-1H-imidazol-2-yl)pyrrolo[2,1-f][1,2,4]triazin-4-amine]	0 (0 = 0% inhibition)	0 (0 = 0% inhibition)	0 (0 = 0% inhibition)	0 (0 = 0% inhibition)	0 (0 = 0% inhibition)	0 (0 = 0% inhibition)	0 (0 = 0% inhibition)	A (A = 1-25% inhibition)	–	–	–	–
Cc1c(-c2ccn(C(C)C)n2)cn2nc(-c3nccn3C)nc(Nc3ccn(C4CC4)n3)c12 [Compound 84, N-(1-Cyclopropyl-1H-pyrazol-3-yl)-6-(1-isopropyl-1H-pyrazol-3-yl)-5-methyl-2-(1-methyl-1H-imidazol-2-yl)pyrrolo[2,1-f][1,2,4]triazin-4-amine]	–	–	–	–	C (C = 50-75% inhibition)	D (D = 76-100% inhibition)	D (D = 76-100% inhibition)	C (C = 50-75% inhibition)	yes	yes	yes	yes
Cc1c(-c2ccn(C3CC3)n2)cn2nc(-c3nccn3C)nc(Nc3cc(OCCN(C)C)ccn3)c12 [Compound 147, 6-(1-Cyclopropyl-1H-pyrazol-3-yl)-N-(4-(2-(dimethylamino)ethoxy)pyridin-2-yl)-5-methyl-2-(1-methyl-1H-imidazol-2-yl)pyrrolo[2,1-f][1,2,4]triazin-4-amine]	–	–	–	–	A (A = 1-25% inhibition)	C (C = 50-75% inhibition)	0 (0 = 0% inhibition)	0 (0 = 0% inhibition)	–	–	–	–
Cc1c(-c2ccn(C3CC3)n2)cn2nc(-c3nccn3C)nc(Nc3cc(OCCCN(C)C)ccn3)c12 [Compound 148, 6-(1-Cyclopropyl-1H-pyrazol-3-yl)-N-(4-(3-(dimethylamino)propoxy)pyridin-2-yl)-5-methyl-2-(1-methyl-1H-imidazol-2-yl)pyrrolo[2,1-f][1,2,4]triazin-4-amine]	–	–	–	–	A (A = 1-25% inhibition)	B (B = 26-49% inhibition)	0 (0 = 0% inhibition)	0 (0 = 0% inhibition)	–	–	–	–
